A short description of the experiment: qHTS Assay to Find Inhibitors of Chronic Active B-Cell Receptor Signaling. To be noted: ABC-DLBCL IkBa-CBG/CBR reporter, luminescence ratio (green luciferase fused to IkBa over red control in TMD8 lymphoma cells), 4 h. In outline:
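Cell line TMD8 (human ABC DLBCL), stably expressing tet-inducible CBG68-IkBa fusion and CBR; IMDM/0.5% FBS; cpd up to 46 uM; dox induction, 4 h, 37C/5% CO2; dual luminescence; green/red ratio; MG132 control.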

Where [1] appears, read: measured here: CBR red luminescence, cell number.
Where [2] appears, read: measured here: IkBa-CBG green luminescence.

Structures are written as SMILES. Some of the results follow. These are further read-outs of the screen, such as a control signal, another cell line or another target. No call is given for them. The list favours compounds with an active or inconclusive main result. The note in brackets gives the kind of curve behind each potency; many fits are weak.

As for `CCOC(=O)c1sc2nc3c(cc2c1N)COC(C)(C)C3`, the AC50 under setting [1] is 5.8 µM [falling, full curve] and the AC50 under setting [2] is 5.17 µM [rising, partial curve, poor fit]. On to `CCn1c(C)nc2cc(C(=O)NNC(=S)Nc3ccc(F)cc3)ccc21`, for which the concentration at half-maximal activity (AC50) under setting [1] is 4.47 µM [rising, single point]. Turning to `C=CCNc1oc(-c2cccc3ccccc23)nc1C#N`, the AC50 under setting [1] was 16.4 µM [rising, partial curve, poor fit].

As for `O=C(N/N=C/c1ccc(N2CCOCC2)o1)c1cccc(F)c1`, the AC50 under setting [1] was 29.1 µM [falling, single point]. Still for that read-out and setting: in the case of `CC(CN1CCOCC1)OC(=O)c1cccc(Cl)c1` (configuration not stated) it was 35.5 µM [rising, partial curve, poor fit]; in that of `COc1cc(CNCc2cccnc2)ccc1OCC(=O)NC1CCCCC1`, 6.31 µM [falling, single point]. On to `Cc1cc(C)c2c(=O)[nH]c(SCC(=O)c3ccc(C)c(C)c3)nc2n1`, for which the AC50 under setting [1] is 1.41 µM [falling, full curve, poor fit].

Turning to `O=C(/C=C/c1ccc2c(c1)OCO2)c1ccco1`, under setting [1], the AC50 is 25.9 µM [falling, single point]. For `Cc1cc(Nc2ccc(N3CCOCC3)cc2)c2cccc(C)c2n1`, the AC50 under setting [1] is 14.1 µM [falling, single point]. `CCOc1ccc(C(CCc2ccccc2)NC(=O)c2ccccc2)cc1OCC` (configuration not stated): the AC50 under setting [1] is 29.1 µM [rising, single point]. On the same count and under the same terms, in the case of `O=C(COC(=O)C1CC2CCCC(C1)C2=O)Nc1ccc(F)c(Cl)c1` (configuration not stated) it was 18.4 µM [falling, partial curve, poor fit]; in that of `CCc1ccc(N2C(=O)CN(Cc3cc(OC)c(OC)c(OC)c3)C2=S)cc1`, 18.4 µM [falling, single point]; in that of `C=CCc1c(C)nc2c(-c3ccccc3)cnn2c1N1CCOCC1`, 0.112 µM [rising, full curve, poor fit]. On the same count and under the same terms, the value for `CCOC(=O)c1cnc2ccc(OCC)cc2c1N1CCN(C)CC1` was 35.5 µM [falling, single point]; that for `CC(=O)N(C)c1ccc(NC(=O)Nc2cccc3ccccc23)cc1` was 10 µM [falling, partial curve]; that for `CC(CC(=O)Nc1cc([N+](=O)[O-])ccc1Cl)c1ccccc1` (configuration not stated) was 2.51 µM [rising, full curve, poor fit]. Still for that read-out and setting: the value for `Cc1ccc(SCC(=O)NCCN2C(=O)CSC2=O)c(C)c1` was 3.66 µM [rising, single point]; that for `COC(=O)c1ccc(NC(=O)C2CCCN2S(=O)(=O)c2ccc(OC)cc2)cc1` (configuration not stated) was 6.51 µM [rising, full curve, poor fit]. `Cc1cccc2cc(CN(CCN3CCOCC3)C(=O)NCc3ccccc3)c(=O)[nH]c12`: the AC50 under setting [1] was 5.8 µM [falling, partial curve, poor fit]. Regarding `CCc1ccc(S(=O)(=O)/N=C2\C=C(Nc3ccc(C(=O)O)cc3)C(=O)c3ccccc32)cc1`, the AC50 under setting [1] is 2.24 µM [falling, full curve, poor fit] and the AC50 under setting [2] was 8.91 µM [rising, partial curve, poor fit].

Take `COc1ccnc2c1c(=O)n(Cc1ccc(F)cc1)c(=O)n2C`: the AC50 under setting [1] was 11.2 µM [falling, partial curve, poor fit]. The same measure, in the same setting: in the case of `COc1ccc(S(=O)(=O)N(CC(=O)NCc2cccnc2)Cc2ccccc2)cc1` it was 1.78 µM [rising, partial curve, poor fit].

Take `Cc1sc(-n2c(C)cc(/C=C3\SC(=S)NC3=O)c2C)c(C#N)c1C`: the AC50 under setting [1] was 20 µM [rising, partial curve, poor fit].

Take `COc1ccc(-c2cc3nc(CCl)[nH]c(=O)c3s2)cc1`: the AC50 under setting [1] was 10 µM [falling, partial curve]. As to `COc1cccc(-n2c(SCC(=O)OC(C)C)nnc2-c2cccnc2)c1`, the AC50 runs as follows: under setting [1], 0.326 µM [falling, full curve]; under setting [2], 0.326 µM [rising, full curve, poor fit]. `Cc1ccc(-n2cc(CNC(C)Cn3cncn3)c(-c3ccc(F)cc3)n2)cc1` (configuration not stated): under setting [1], the AC50 is 8.91 µM [falling, partial curve]. On the same count and under the same terms, the value for `CNC(C)C(=O)NC(C(=O)N1CCCC1C(=O)NNc1ccccc1)C(C)C` (configuration not stated) was 11.6 µM [rising, partial curve, poor fit]; that for `O=C(O)c1cccc(N/N=C/c2cccnc2)c1` was 3.98 µM [falling, partial curve]; that for `Cc1[nH]c2ccccc2c1C(=O)COC(=O)c1nccnc1N` was 23.1 µM [falling, partial curve, poor fit]. In the case of `Cc1ccc(S(=O)(=O)CCC(=O)N2CCN(c3ccc([N+](=O)[O-])cc3)CC2)cc1`, under setting [1], the AC50 is 5.62 µM [falling, partial curve, poor fit]. Regarding `COc1cc(C2C(C#N)=C(N)Oc3c2c(-c2ccccc2)nn3-c2ccccc2)cc(OC)c1OC` (configuration not stated), the AC50 is 29.1 µM [falling, single point] under setting [1] and 25.9 µM [rising, single point] under setting [2]. With `CN1CCC/C1=C1/C(=O)N(c2ccccc2)N=C1NC(=O)Nc1cccc(Cl)c1`, the AC50 under setting [1] was 1.78 µM [falling, full curve]. For `Cc1ccc(-c2nc3ccccc3c(=O)n2-c2c(C)n(C)n(-c3ccccc3)c2=O)cc1`, the AC50 under setting [1] was 6.31 µM [rising, single point]. The same measure, in the same setting: in the case of `N/C(=N\OC(=O)c1cnn(-c2ccccc2)c1C(F)(F)F)c1cc(C(F)(F)F)cc(C(F)(F)F)c1` it was 11.2 µM [rising, partial curve, poor fit]; in that of `Cc1ccc(/C(C#N)=C\c2cn(C)c3ccccc23)cc1`, 0.92 µM [rising, full curve]; in that of `O=C(NCc1cccc(F)c1)c1cccc2c1C(=O)c1ccc(N3CCCC3)cc1S2(=O)=O`, 29.1 µM [rising, partial curve, poor fit]. Regarding `CCCCn1c(SCC(=O)N2CCN(c3ccccc3)CC2)nc2ccsc2c1=O`, the AC50 under setting [1] is 20 µM [falling, single point]. Same read-out and setting: the value for `O=C1CSC(=S)N1Cc1cccnc1` was 18.4 µM [falling, partial curve]. Regarding `COC(=O)c1[nH]c2c(c1C)C(=O)CC(c1ccccc1)C2` (configuration not stated), the AC50 by setting is: under setting [1], 5.17 µM [rising, full curve]; under setting [2], 2.59 µM [falling, full curve].

In the case of `Cc1cccc(-c2nn(-c3ccccc3)cc2C(=O)N(C)CC(=O)Nc2ccc(N3CCOCC3)cc2)c1`, under setting [1], the AC50 was 7.31 µM [rising, partial curve, poor fit].

On to `O=C(CNC(=O)c1cccs1)NCC(=O)OCc1c(Cl)cccc1Cl`, for which the AC50 under setting [1] is 3.98 µM [rising, full curve, poor fit]. The same measure, in the same setting: in the case of `O=C(O)c1ccc(NS(=O)(=O)c2ccc3c(c2)C(=O)c2cc(S(=O)(=O)Nc4ccc(C(=O)O)cc4)ccc2-3)cc1` it was 35.5 µM [falling, single point]; in that of `O=C(NC(Cc1ccccc1)C(=O)O)c1ccco1` (configuration not stated), 15.8 µM [rising, single point]; in that of `CCOC(=O)CSc1nc2c(sc3ccccc32)c(=O)n1Cc1ccc(OC)cc1`, 35.5 µM [falling, single point].

With `Cc1ccc(CSCC(=O)Nc2ccccc2)cc1`, the AC50 under setting [1] was 3.16 µM [rising, partial curve]. Consider `CCOc1cnc(-c2c(-c3c(F)cccc3Cl)noc2C)o1`, for which, under setting [1], the AC50 was 0.112 µM [rising, full curve, poor fit]. Turning to `CCOC(=O)[C@H]1[C@H]2COc3cc(OC)ccc3[C@@H]2N2C(=O)c3cc(OC)ccc3NC(=O)[C@@]12C`, the half-maximal activity concentration (AC50) under setting [1] is 16.4 µM [falling, partial curve] and the AC50 under setting [2] is 20.6 µM [rising, partial curve, poor fit]. On to `COc1ccc(OCc2cccc(C(=O)N3CCCC3)c2)cc1`, for which the AC50 under setting [1] was 29.1 µM [falling, single point].

With `COc1ccc(OCCNC(=O)c2ccccc2OCC(=O)Nc2ccc(NC(C)=O)cc2)cc1`, the concentration at half-maximal activity (AC50) under setting [1] was 29.1 µM [falling, single point]. For the compound `Nc1c(C(=O)c2ccccc2)sc(Nc2ccc(Cl)c(Cl)c2)c1C(=O)Nc1ccccc1`, the half-maximal activity concentration (AC50) under setting [1] is 12.6 µM [falling, partial curve].

In the case of `CC(C)NC(=O)c1c(O)c2ccccc2[nH]c1=O`, the AC50 under setting [1] was 29.1 µM [falling, single point]. The same measure, in the same setting: the value for `C=CCNC(=S)/N=c1/scc(C)n1C` was 13 µM [rising, partial curve, poor fit]; that for `Cc1c(CN2CCC(CO)(Cc3cccc(C(F)(F)F)c3)CC2)c2ccccc2n1C` was 35.5 µM [falling, single point]. Still for that read-out and setting: the value for `O=C(CNS(=O)(=O)c1cccc(Cl)c1)Nc1ccc(-c2nc3ccccc3s2)cc1` was 5.8 µM [rising, partial curve]; that for `O=C(Cc1cccs1)Nc1nnc(SCc2ccc(C(F)(F)F)cc2)s1` was 29.1 µM [rising, partial curve, poor fit]. On the same count and under the same terms, in the case of `CNC(=O)CSc1cn(CC(=O)N(C(C)C)C(C)C)c2ccccc12` it was 14.1 µM [falling, partial curve, poor fit]; in that of `COc1cc(S(=O)(=O)N2CCN(c3ccccc3)CC2)ccc1F`, 3.16 µM [falling, single point]. On to `O=Nc1ccc(NOC(=O)c2ccccc2Br)cc1`, for which the AC50 under setting [1] was 29.1 µM [falling, single point].

On to `CC(C)(C)c1cc(NC(=O)COC(=O)c2ccc(O)cc2O)n(-c2ccccc2)n1`, for which the AC50 under setting [1] is 18.4 µM [falling, single point]. `CCOC(=O)c1ccc(N2C(=O)C(O)=C(C(C)=O)C2c2ccccn2)cc1` (configuration not stated): the AC50 under setting [1] is 1.84 µM [rising, partial curve, poor fit]. Same read-out and setting: the value for `Cc1ccc2nc(NC(=O)CN3CCOCC3)sc2c1` was 4.11 µM [falling, full curve, poor fit].

(Values after PubChem BioAssay AID493014 (National Center for Advancing Translational Sciences (NCATS), 2011).)
